# This is one part of the list. Further columns of the screen follow, without active or inactive calls. Compounds called inactive in the main read-out are mostly missing here. Words in brackets tell the shape of the fitted curve; partial curves, single points and poor fits give uncertain potencies.
# Experiment: qHTS Assay for Lipid Storage Modulators in Drosophila S3 Cells;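 as to cell number change: cells counted by Cell Tracker Red CMTPX staining in the red channel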
# Settings: BODIPY lipid droplet fluorescence, 18-24 h; for cell number change: measured here: cell count max response, cells fed with added oleic acid
# How it was run: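 Laser-scanning cytometry quantifies lipid droplet accumulation (500–530 nm total intensity; droplet/cell object ratio) in oleic acid-fed (400 uM added) Drosophila S3 cells treated with a concentration series. 20 uM Triacsin C defined 100% inhibition.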
# [1] = measured here: cell number channel AC50, cells fed with added oleic acid
# [2] = measured here: lipid fluorescence (Fed channel) AC50, cells fed with added oleic acid
SMILES,cell number change [%],AC50 [1],AC50 [2]
COc1ccc(N2CC(NC(=O)NCC(C)C)CC2=O)cc1 (stereo unspecified),1.04,"0.206 µM [rising, full curve, poor fit]",
CCOc1ccccc1N(CC(=O)Nc1ccc2c(c1)OCO2)S(C)(=O)=O,32.3,"2.91 µM [rising, partial curve, poor fit]","0.164 µM [rising, full curve, poor fit]"
O=C(C[n+]1ccccc1)N/N=C/c1ccc(Br)cc1,12.1,,
COc1nc(N)c(S(=O)(=O)c2ccccc2C)cc1C#N,,,"3.26 µM [rising, full curve]"
CCc1nn(C(C)C(=O)NCc2cccc(OC)c2)c(=O)c2cc3occc3n12 (stereo unspecified),-79.4,"29.1 µM [falling, single point]",
COc1ccc(-n2c(-c3ccco3)n[nH]c2=S)cc1,18.3,,"20.6 µM [rising, single point]"
COc1ccc(/C=C/C(=O)NCCc2ccc(S(N)(=O)=O)cc2)cc1,92.1,"20.6 µM [rising, partial curve]","0.103 µM [rising, full curve, poor fit]"
COc1ccc(C(=O)NC(=S)NNC(=O)c2ccncc2)cc1Br,-12.1,,"0.731 µM [rising, partial curve, poor fit]"
O=C(CN1CCN(Cc2ccc3c(c2)OCO3)CC1)N1CCc2[nH]c3ccc(F)cc3c2C1,,,"3.66 µM [rising, single point]"
Cc1ccccc1NC(=O)CSCc1nc(N)nc(Nc2ccccc2C)n1,20.6,,"25.9 µM [rising, single point]"
NS(=O)(=O)c1ccc(CCNC(=O)CSc2nc3ccsc3c(=O)n2CC2CCC(C(=O)O)CC2)cc1 (stereo unspecified),-46.9,"5.17 µM [falling, partial curve]","0.0058 µM [falling, full curve, poor fit]"
CC(C)C(NC(=O)c1c(F)cccc1F)C(=O)OCN1C(=O)c2ccccc2C1=O (stereo unspecified),2.51,,"29.1 µM [rising, single point]"
O=C1C(Cc2ccccc2)Nc2ncnc(N3CCN(c4ccccc4)CC3)c2N1Cc1ccccc1 (stereo unspecified),29.5,,"20.6 µM [rising, partial curve]"
Cc1ccccc1Nc1c(-c2cccnc2)nc2cccc(C)n12,,,"20.6 µM [rising, single point]"
Cc1cc(Br)ccc1NC(=O)CN(C)C(=O)CNC(=O)Cc1ccccc1,12.9,"6.51 µM [rising, single point]",
COc1ccc(/C=C/C(=O)OCC(=O)NCCC2=CCCCC2)cc1S(=O)(=O)N1CCOCC1,,"0.103 µM [falling, full curve, poor fit]",
CCOc1cccc(C(=O)NCc2ccccc2)c1,-13.7,,"16.4 µM [falling, single point]"
COc1ccc(-n2nnc3c(SC(C(C)=O)C(=O)N(C)C)ncnc32)cc1 (stereo unspecified),15,,"29.1 µM [rising, single point]"
O=C1NC2(CCCCC2)C(=O)N1c1ccc(Cl)cc1,-14.6,,
Cc1cccc(-c2cc3nc(C)cc(NCCCn4ccnc4)n3n2)c1,30.9,,"18.4 µM [rising, single point]"

SMILES,cell number change [%],AC50 [1],AC50 [2]
COC(=O)c1cn(C(=O)c2cccc(Br)c2)c2ccccc12,28.5,,"10.3 µM [rising, partial curve]"
COc1ccc(C2C3=C(CC(C)(C)CC3=O)Oc3ncn(CCCn4ccnc4)c(=N)c32)cc1 (stereo unspecified),1.87,,"0.651 µM [rising, full curve]"
COc1ccc(-c2c(C)oc3ccc(C)cc23)cc1,11.6,,
CC1C(=NO)C(C)C(c2ccccc2)NC1c1ccccc1 (stereo unspecified),,,"3.66 µM [falling, partial curve]"
Cc1cc(C(=O)NCCN2CCCCC2C)n(-c2ccccc2)n1 (stereo unspecified),-37.9,"16.4 µM [falling, partial curve, poor fit]","25.9 µM [falling, partial curve, poor fit]"
Cc1ccc(CC(=O)N2CCN(c3ccccn3)CC2)cc1,0.196,,"18.4 µM [rising, single point]"
COc1ccc(S(=O)(=O)Nc2cc3c(C(C)=O)c(C)oc3c3ccccc23)cc1,,,"0.58 µM [rising, partial curve, poor fit]"
O=C(NCCCNC(=O)c1ccccc1F)c1ccco1,-3.75,,
COc1ccc(-c2nnc3n2N=C(c2ccccc2)CS3)cc1OC,18.2,,"1.16 µM [rising, partial curve]"
COCCN(C(=O)COC(=O)c1cccnc1SC)c1c(N)n(Cc2ccccc2)c(=O)[nH]c1=O,,,"14.6 µM [falling, single point]"
CC(C)=CCc1c(O)c(CC=C(C)C)c2occ(-c3ccc(O)cc3)c(=O)c2c1O,-73.3,"23.1 µM [falling, partial curve]","23.1 µM [falling, partial curve]"
O=C(Cc1ccc(Br)cc1)NCc1ccccc1,-12.3,,"29.1 µM [falling, single point]"
CC(C)N(CC#CCC(O)(c1ccccc1)c1ccccc1)C(C)C,-9.5,,"0.461 µM [falling, full curve, poor fit]"
O=S(=O)(c1cccnc1)N1CCn2cccc2C1c1ccccc1F (stereo unspecified),,,"0.184 µM [rising, full curve]"
Cc1cccc(CN2CCN(C(=O)CCl)CC2)c1,-14.9,,"18.4 µM [falling, single point]"
Cc1ncsc1CCOC(=O)c1ccc(N2CCOCC2)c([N+](=O)[O-])c1,-35.4,,
CCn1c(C)c(CS(=O)(=O)c2ccccc2)[nH]c1=O,-0.875,"0.731 µM [falling, full curve]","0.461 µM [falling, full curve]"
COc1ccccc1-n1c(CNC(=O)c2cccs2)n[nH]c1=S,-14.6,,"0.00206 µM [falling, full curve, poor fit]"
COc1ccc(-c2noc(N3CCC(C(=O)NCCCN4CCCC(C)C4)CC3)n2)cc1 (stereo unspecified),-5.76,,"6.51 µM [rising, single point]"
COc1ccc(-c2cc(-c3c(O)c(OC)c4occc4c3OC)[nH]n2)cc1OC,,,"0.164 µM [falling, full curve, poor fit]"

SMILES,cell number change [%],AC50 [1],AC50 [2]
COc1ccc(Cl)cc1NC(=O)C1CCCN(S(C)(=O)=O)C1 (stereo unspecified),-21.3,,
COc1cc(OC)cc(-c2cc(N)n(S(=O)(=O)c3cccc4nsnc34)n2)c1,,"2.31 µM [rising, single point]",
COc1ccc(CNC(=O)C2CCN(S(=O)(=O)c3cccc4cccnc34)CC2)cc1,41.8,"4.11 µM [rising, full curve]","3.66 µM [rising, full curve]"
COc1cccc(NC(=O)CN(C)C(=O)CN2C(=O)NC(C)(c3ccc(C)cc3)C2=O)c1 (stereo unspecified),7.9,,"0.517 µM [falling, single point]"
COc1ccc(-c2nc3ccccc3n2Cc2ccc(C)cc2)cc1,43.2,"18.4 µM [rising, single point]","18.4 µM [rising, partial curve]"
CC(=O)c1ccccc1NC(=O)C1CC(=O)N(c2ccc3c(c2)OCCO3)C1 (stereo unspecified),-3.61,"0.731 µM [rising, single point]","29.1 µM [falling, partial curve, poor fit]"
CCOc1cc(C2c3c(oc4cc(C)c(Cl)cc4c3=O)C(=O)N2Cc2ccco2)ccc1O (stereo unspecified),-39.2,"29.1 µM [falling, single point]","29.1 µM [falling, single point]"
CCOC(=O)c1c(C)c(C(=O)NCc2ccco2)c(C)n1Cc1ccccc1,-12.4,"0.13 µM [falling, full curve, poor fit]","20.6 µM [rising, single point]"
Cc1ccc(N(C(=O)c2csnn2)C(C(=O)NC2CCCCC2)c2ccccn2)cc1 (stereo unspecified),16.2,,"6.51 µM [falling, single point]"
Cc1cc(-n2nc(C)cc2C)nc(NS(=O)(=O)c2ccccc2Cl)n1,,,"0.731 µM [rising, single point]"
CCOc1ccccc1NC(=O)C(OC(=O)c1ccccc1NS(=O)(=O)c1cccs1)c1ccccc1 (stereo unspecified),33.3,"2.06 µM [rising, full curve]","14.6 µM [falling, partial curve]"
CCn1c(SCC(=O)Nc2nc(-c3ccccc3)cs2)nc2c1c(=O)n(C)c(=O)n2C,102,"4.11 µM [rising, full curve]","14.6 µM [rising, partial curve]"
COC(=O)C(CCCCNC(=O)c1ccc([N+](=O)[O-])cc1)NC(=O)c1ccc([N+](=O)[O-])cc1 (stereo unspecified),6.05,,"0.058 µM [rising, full curve, poor fit]"
Cc1ccc(Nc2c([N+](=O)[O-])ccc3nonc23)c(C)c1,-63.3,"10.3 µM [falling, partial curve]","8.2 µM [falling, partial curve]"
Cc1cc(O)c(C(=O)c2ccccc2C(=O)O)cc1C,0.337,,"3.26 µM [rising, single point]"
O=C(NCc1cccs1)c1cc(S(=O)(=O)N2CCOCC2)c(Cl)cc1Cl,5.45,,"29.1 µM [rising, single point]"
COc1cc2c(cc1OC)C(COc1ccc(F)cc1)NCC2 (stereo unspecified),1.19,,
COc1ccc(/C=C2/NC(=O)N(CC(=O)Nc3cccc(C)c3)C2=O)cc1O,,,"0.411 µM [rising, full curve]"

# Some values from the entries so far:
# Value of COc1ccc(/C=C2/NC(=O)N(CC(=O)Nc3cccc(C)c3)C2=O)cc1O under AC50 [2]: 0.411 µM [rising, full curve]
# Value of COc1ccc(-c2nc3ccccc3n2Cc2ccc(C)cc2)cc1 under AC50 [2]: 18.4 µM [rising, partial curve]
# Value of COc1ccc(CNC(=O)C2CCN(S(=O)(=O)c3cccc4cccnc34)CC2)cc1 under AC50 [2]: 3.66 µM [rising, full curve]
